These are yes or no findings as the source states them, for the method shown. Binding seen in cells or lysates may run through a third protein. Here binding means that the protein was enriched with, or labelled near, the bait; the list need not be complete.
Target: human FLAG-TAZ^S89A (human) (UniProt Q9GZV5)
Experiment: affinity purification with mass spectrometry; HUVECs infected with AdCtrl (GFP), AdYAP^S127A or AdTAZ^S89A; immunoprecipitation with FLAG M2 beads 16 h after transduction; SDS-PAGE, in-gel trypsin digestion, LC-MS, label-free quantification

Amino acid sequences for entries named in this document (tags omitted). A change or cut given only in a name is not applied to a line headed by its entry.
UniProt Q9GZV5: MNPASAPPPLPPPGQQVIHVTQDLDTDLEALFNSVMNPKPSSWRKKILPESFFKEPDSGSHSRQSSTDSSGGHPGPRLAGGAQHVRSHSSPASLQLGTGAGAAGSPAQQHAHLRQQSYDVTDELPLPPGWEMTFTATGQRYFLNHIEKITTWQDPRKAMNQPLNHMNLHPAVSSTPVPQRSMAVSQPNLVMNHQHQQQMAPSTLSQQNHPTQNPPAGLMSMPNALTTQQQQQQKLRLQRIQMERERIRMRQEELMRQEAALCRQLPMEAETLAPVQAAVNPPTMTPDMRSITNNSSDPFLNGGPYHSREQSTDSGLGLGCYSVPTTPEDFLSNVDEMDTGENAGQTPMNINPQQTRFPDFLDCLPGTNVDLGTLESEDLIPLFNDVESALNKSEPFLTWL
UniProt Q15562: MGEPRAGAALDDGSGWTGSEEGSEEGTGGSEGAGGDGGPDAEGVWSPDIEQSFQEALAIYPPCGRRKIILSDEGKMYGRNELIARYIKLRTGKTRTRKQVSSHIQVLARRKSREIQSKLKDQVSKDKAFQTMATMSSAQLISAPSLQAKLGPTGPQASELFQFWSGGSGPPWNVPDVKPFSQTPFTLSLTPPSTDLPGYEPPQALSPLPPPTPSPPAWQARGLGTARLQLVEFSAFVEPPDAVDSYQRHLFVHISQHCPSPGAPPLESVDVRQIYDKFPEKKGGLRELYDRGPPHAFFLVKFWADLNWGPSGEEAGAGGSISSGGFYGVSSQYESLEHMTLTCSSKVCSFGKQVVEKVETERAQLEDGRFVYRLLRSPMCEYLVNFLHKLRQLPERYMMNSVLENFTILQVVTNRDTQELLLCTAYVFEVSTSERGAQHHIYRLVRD

binding: binds
Substance: TEAD2 (from UniProt Q15562 1-447)

Reference: article PMC9236904
